For the test, the system named is Aspergillus nidulans 200092. Briefly: MTS/MEN growth inhibition assay, OD490.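 Further: fungal spore suspensions in 96-well plates with MTS/MEN indicator, absorbance read after 2 h and again after further development up to 24 h, controls containing medium only.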

In brackets after ≈: the same amount, converted by molar mass.

On to `Clc1ccccc1C(c1ccccc1)(c1ccccc1)n1ccnc1` [Clotrimazole, clotrimazole], for which the IC50 (in general, the concentration at which inhibition is half-maximal) was determined as 0.0325 µg/mL (≈ 0.0943 µM) (Aspergillus nidulans, 200092, 2 h) and 0.00068 µg/mL (≈ 0.00197 µM) (Aspergillus nidulans, 200092, 24 h).

The values are drawn from patent US20020028479A1, “Methods for the detection of fungal growth” (priority 2000, published 2002).
